Reference: publication PMC10710061

Molecular target: SAP05 N77R (purified, for ITC) (Aster Yellows phytoplasma strain Witches Broom (AYWB))
Test: condition: 20 μM SAP05 mutant in the cell, 200 μM SPL5^ZnF from the syringe; ITC; SPL5^ZnF from the syringe (250 μM for wild-type SAP05, 200 μM for the SAP05–Rpn10^vWA complex or SAP05 mutants) into 20 μM partner in the cell; 25 °C, 20 mM HEPES pH 7.5, 150 mM NaCl; one-site binding model; both purified

B1: ZnF domain of Arabidopsis thaliana SPL5, residues 60 to 127 (domain or fragment, UniProt Q9S758 60-127)
chain: SRLCQVDRCTVNLTEAKQYYRRHRVCEVHAKASAATVAGVRQRFCQQCSRFHELPEFDEAKRSCRRRL
binding: no binding

These are yes or no findings as the source states them, for the method shown.
